Values from PubChem BioAssay AID504804 (Drosophila RNAi Screening Center, 2011).

- Purpose: 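dsRNAs that improve Kc cell survival under doxorubicin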 (primary screen)
- Cells: Drosophila Kc cells
- Reagents: long dsRNA against Drosophila genes, 0.5 µg dsRNA per well
- Timing: 96 h (48 h knock-down, then 48 h drug)
- Treatment: doxorubicin 5 µg/ml for 48 h, added 48 h after dsRNA
- Read-out: 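Luminescent ATP counts per replicate, not normalised, reflecting viable cells after 48 h dsRNA knock-down followed by 48 h of 5 µg/ml doxorubicin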
- Scale: raw ATP luminescence: higher = more viable cells, protection from doxorubicin
- Hit rule: 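z-score of 2 or more over plate mean in both duplicates, retained only when retests and separate dsRNAs confirm the protection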
The screen tested about 19,000 reagents; below is a random part of those that have a named target and a result. In the full data, 47 (0.25%) are marked active. 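Signals are raw, not normalised; exact z-scores behind calls not deposited; actives needed confirmation, so some wells reaching 2 SD are inactive.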

dpr15 [DRSC12891]: raw ATP luminescence, replicate 1 = 2.33e5; raw ATP luminescence, replicate 2 = 2.33e5; Call = inactive
dpr15 [DRSC14187]: raw ATP luminescence, replicate 1 = 29313; raw ATP luminescence, replicate 2 = 42507; Call = inactive
dpr15 [DRSC14188]: raw ATP luminescence, replicate 1 = 52327; raw ATP luminescence, replicate 2 = 49750; Call = inactive
CG16998 [DRSC10235]: raw ATP luminescence, replicate 1 = 86897; raw ATP luminescence, replicate 2 = 1.04e5; Call = inactive
CG12376 [DRSC06144]: raw ATP luminescence, replicate 1 = 61653; raw ATP luminescence, replicate 2 = 51803; Call = inactive
CG9922 [DRSC16579]: raw ATP luminescence, replicate 1 = 1.18e5; raw ATP luminescence, replicate 2 = 1.05e5; Call = inactive
CG6287 [DRSC02947]: raw ATP luminescence, replicate 1 = 1.16e5; raw ATP luminescence, replicate 2 = 81297; Call = inactive
RpL22-like [DRSC04582]: raw ATP luminescence, replicate 1 = 46370; raw ATP luminescence, replicate 2 = 43737; Call = inactive
beta4GalT7 [DRSC14385]: raw ATP luminescence, replicate 1 = 57410; raw ATP luminescence, replicate 2 = 66840; Call = inactive
Tpc2 [DRSC04322]: raw ATP luminescence, replicate 1 = 28400; raw ATP luminescence, replicate 2 = 64030; Call = inactive
CG16734 [DRSC15143]: raw ATP luminescence, replicate 1 = 50920; raw ATP luminescence, replicate 2 = 61857; Call = inactive
Alp2 [DRSC04354]: raw ATP luminescence, replicate 1 = 50757; raw ATP luminescence, replicate 2 = 36157; Call = inactive
CG14841 [DRSC14965]: raw ATP luminescence, replicate 1 = 92290; raw ATP luminescence, replicate 2 = 57200; Call = inactive
CG7945 [DRSC10934]: raw ATP luminescence, replicate 1 = 29700; raw ATP luminescence, replicate 2 = 23643; Call = inactive
vig [DRSC03630]: raw ATP luminescence, replicate 1 = 60823; raw ATP luminescence, replicate 2 = 77990; Call = inactive
vig [DRSC03631]: raw ATP luminescence, replicate 1 = 83450; raw ATP luminescence, replicate 2 = 71290; Call = inactive
Rcd2 [DRSC11756]: raw ATP luminescence, replicate 1 = 60983; raw ATP luminescence, replicate 2 = 67207; Call = inactive
Taf7 [DRSC15445]: raw ATP luminescence, replicate 1 = 57513; raw ATP luminescence, replicate 2 = 54353; Call = inactive
CG9394 [DRSC04550]: raw ATP luminescence, replicate 1 = 43603; raw ATP luminescence, replicate 2 = 47820; Call = inactive
babos [DRSC03923]: raw ATP luminescence, replicate 1 = 61620; raw ATP luminescence, replicate 2 = 69217; Call = inactive
babos [DRSC04397]: raw ATP luminescence, replicate 1 = 53710; raw ATP luminescence, replicate 2 = 69727; Call = inactive
Ir7g [DRSC18008]: raw ATP luminescence, replicate 1 = 43250; raw ATP luminescence, replicate 2 = 49900; Call = inactive
LRR [DRSC06444]: raw ATP luminescence, replicate 1 = 47493; raw ATP luminescence, replicate 2 = 81210; Call = inactive
TTLL3B [DRSC02133]: raw ATP luminescence, replicate 1 = 20803; raw ATP luminescence, replicate 2 = 32450; Call = inactive
CG9338 [DRSC03213]: raw ATP luminescence, replicate 1 = 68897; raw ATP luminescence, replicate 2 = 50287; Call = inactive
CG31266 [DRSC15747]: raw ATP luminescence, replicate 1 = 66120; raw ATP luminescence, replicate 2 = 73950; Call = inactive
scat [DRSC02722]: raw ATP luminescence, replicate 1 = 85763; raw ATP luminescence, replicate 2 = 49747; Call = inactive
Mco4 [DRSC20061]: raw ATP luminescence, replicate 1 = 3.57e5; raw ATP luminescence, replicate 2 = 3.61e5; Call = inactive

A few values from the list:
For “raw ATP luminescence, replicate 2”, CG6287 [DRSC02947] is entered as 81297
Entry of babos [DRSC03923] in “raw ATP luminescence, replicate 1”: 61620
Result for Mco4 [DRSC20061] in “Call”: inactive
